Consider 6 compounds from US7659053B2, “Methods of alteration of surface affinities using non-chemical force-creating fields” (President and Fellows of Harvard College, priority 2003, dated 2010).

Some entries repeat one wording, which the source may state once for all of them.

Data set [1] has as its system motile mammalian cells. Briefly: Confinement of cells to micropatterns on SAM-coated gold substrates. Format: cell-based. Particulars: C18-stamped pattern.
Data set [2] is described as follows: SPR of protein adsorption on SAMs on palladium. Particulars: SAM on thin layer of Pd; data not shown.
In another data set the test system is NIH 3T3 fibroblast cells. Briefly: Culture of NIH 3T3 fibroblasts on micropatterned SAMs on gold and palladium. The data set is classed as cell-based. On the procedure:
To test the ability of SAMs on palladium to support the adhesion and growth of cells in micropatterns, certain features on the substrates were defined using microcontact printing, using techniques similar to those described above. A poly(dimethylsiloxane) (PDMS) stamp that carried microfeatures was inked with 2 mM octadecanethiol (C18) in ethanol, dried under a stream of nitrogen, then brought it into contact with the palladium films for 2 to 10 seconds. Next, the palladium film was immersed in ethanolic solutions containing 2 mM of thiols A, B, or C for up to 50 hours.
NIH 3T3 fibroblast cells were then cultured on these micropatterned substrates. […] In contrast, OEG-terminated SAMs on the same substrate prevented the adhesion of cells during the same times.

Data set [3] is described as follows: Ellipsometry of protein adsorbed on SAMs from fibroblast growth medium. Particulars: SAM on gold or palladium, 25° C., 12 hours.
The test system of data set [4] is motile mammalian cells. Nature of the data set: Electrochemical release of patterned cells by desorbing the SAM. To be noted: voltage applied about 30 seconds, SAM on gold. Format: cell-based.
Data set [5] can be described thus: SPR of serum protein adsorption on SAM-coated gold after voltage pulses. To be noted: for coverage of proteins on initially SAM-coated sample: 30 s, relative to C18 SAM.

For `OCCOCCOCCOCCOCCOCCOCCOCCCS` [Compound 2, HS(CH2)3(OCH2CH2)7OH], the “Time patterns of cells remained faithful to the original pattern” value (from here on “Time patterns of cells remained faithful”) with motile mammalian cells [1] was in the range of 4 to 10 days. Moreover, in data set [2], the “adsorption of proteins from the growth medium” value (“adsorption of proteins” for short) was “generally resisted the adsorption of proteins”. The “period SAM rendered the surface inert” value with NIH 3T3 fibroblast cells (SAM on palladium) is on record as 4-6 weeks. Besides, in data set [3], the “increase in thickness of organic/dielectric layer after incubation with fibroblast growth medium” value was “no statistically significant increase”. Moreover, in the data set on motile mammalian cells [4], the “Minimal Voltage for Release” value came out at 0.6 V.
`OCCOCCOCCOCCOCCOCCOCCCCCCCCCCCS` [thiol B, HS(CH2)11(OCH2CH2)6OH]: the “adsorption of proteins” value in data set [2] is “generally resisted the adsorption of proteins”. Further, the “period SAM remained inert” value in the data set with NIH 3T3 fibroblast cells (SAM on gold) is recorded as “about 2 weeks”. The “increase in thickness of organic/dielectric layer after incubation with fibroblast growth medium” value in data set [3] is “no statistically significant increase”.
Regarding HS(CH2)11(OCH2CH2)n=3-6OH [Compound 1], the “Time patterns of cells remained faithful” value with motile mammalian cells [1] is 14 to 25 days. Further, the “Minimal Voltage for Release” value in the data set with motile mammalian cells [4] worked out at 0.8 V.
Regarding HS(CH2)3(OCH2CH2)4-5OH [Compound 3], the “Time patterns of cells remained faithful” value with motile mammalian cells [1] was in the range of 3 to 9 days. The “Minimal Voltage for Release” value in the data set with motile mammalian cells [4] amounted to 0.6 V.
`OCCOCCOCCOCCCCCCCCCCCS` [Compound C11EG3, HS—(CH2)11—(O—CH2—CH2)3—OH]: the “coverage of proteins on initially SAM-coated sample” value in data set [5] (after about −1.0 V pulse) was “about 56 % of a monolayer”; in data set [5] (after about −1.4 V pulse), ~100 % of a monolayer; in data set [5] (after about −1.8 V pulse) it was ~100 % of a monolayer. In addition, the “adsorption of proteins” value in data set [2] is given as “generally resisted the adsorption of proteins”. Moreover, the “increase in thickness of organic/dielectric layer after incubation with fibroblast growth medium” value in data set [3] is reported as “no statistically significant increase”.
Take `CCCCCCCCCCCCCCCCCCS` [Compound C18, HS—(CH2)17—CH3]: the “protein adsorptive capacity after voltage pulses” value in data set [5] (voltage pulses in the ranges tested) is on record as “not found to change substantially”. In addition, the “adsorption of proteins” value in data set [2] is recorded as “strongly promote adsorption of proteins”. Also, the “increase in thickness of organic/dielectric layer after incubation with fibroblast growth medium” value in data set [3] is on record as “about 2 nm”.
